# Reference: the supplement of paper PMC8326762, “A Small Molecule Inhibitor of Pex3–Pex19 Interaction Disrupts Glycosome Biogenesis and Causes Lethality in Trypanosoma brucei” (Frontiers in Cell and Developmental Biology, 2021)
# Counter-ions that a name gives are not always drawn. Some of the results follow. Single values of this set are uncertain.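 Yeast growth was read as optical density at 600 nm. The two-hybrid strains grew without histidine, so growth needed the Pex3–Pex19 binding; a compound counted as trypanosome-selective if it cut growth of the trypanosome-pair strain by more than 65% and the human-pair strain by less than 65%.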
# Tested on: Saccharomyces cerevisiae HF7c pdr5Δ
# Experiment: general growth inhibition of yeast HF7c pdr5Δ in -Leu -Trp medium, relative to DMSO; higher = stronger general growth inhibition
# Conditions: 100 µM; 24 h
row,SMILES,general growth inhibition
1,O=c1ccc2[nH]cc(C3=CCNCC3)c2[nH]1,25.7%
2,Cc1c2ccncc2c(C)c2c1[nH]c1ccccc12 [Ellipticine],87.8%
3,COc1cc(C(O)CN)ccc1O (racemic) [(±)-Normetanephrine hydrochloride],52.9%
4,CCCN1CCC[C@@H](c2cccc(O)c2)C1 [S(-)-3PPP hydrochloride],58.7%

# Tested on: human PEX3-PEX19 interaction (yeast two-hybrid)
# Experiment: growth inhibition of yeast two-hybrid strain reporting HsPex3-HsPex19 interaction, relative to DMSO; higher = stronger inhibition of human Pex3-Pex19 interaction / growth
# Conditions: 100 µM; 24 h; 3-aminotriazole 10 mM
row,SMILES,growth inhibition
1,Fc1ccc(C(OCCN2CCN(CCCc3ccccc3)CC2)c2ccc(F)cc2)cc1,19.9%
2,C#CCN[C@H](C)Cc1ccccc1 [R-(-)-Desmethyldeprenyl hydrochloride],31.7%
3,CC(C)N(CCC(C(N)=O)(c1ccccc1)c1ccccn1)C(C)C (configuration not stated) [Disopyramide],11%
4,CP(=O)(O)C1=CCNCC1,51.5%
5,c1ccc2c(c1)OCC(C1=NCCN1)O2 (configuration not stated) [Idazoxan hydrochloride],45.9%
6,NCCc1ccc(O)cc1 [4-Hydroxyphenethylamine hydrochloride],49.6%
7,O=C1CCCN1CC#CCN1CCCC1 [Oxotremorine sesquifumarate salt],50.3%
8,"CC(N)c1cccc(Cl)c1Cl (racemic) [(±)-2,3-Dichloro-alpha-methylbenzylamine hydrochloride]",30.7%
9,CC(=O)[C@H]1CC[C@H]2[C@@H]3CC[C@H]4C[C@](C)(O)CC[C@]4(C)[C@H]3CC[C@]12C [Ganaxolone],33.2%
10,CN1[C@@H]2CC[C@H]1C[C@@H](OC(=O)C(CO)c1ccccc1)C2 (some centres not stated) [Atropine sulfate],32.4%
11,C[N+](C)(C)CC#CCOC(=O)Nc1cccc(Cl)c1,45.8%
12,CCCN(CCC)C1CCc2ccc(O)cc2C1 (racemic) [(±)-7-Hydroxy-DPAT hydrobromide],41.1%
13,COc1ccc2c(c1O)-c1cccc3c1[C@@H](C2)N(C)CC3 [R(-)-Apocodeine hydrochloride],38.7%
14,CN1[C@@H]2C[C@@H](OC(=O)[C@H](CO)c3ccccc3)C[C@H]1[C@H](O)C2 (racemic) [(+/-)-Anisodamine],22.9%
15,NNC(N)=O [Semicarbazide hydrochloride],49.4%
16,COC(=O)[C@@H](N)CCCNC(=N)N[N+](=O)[O-] [NG-Nitro-L-arginine methyl ester hydrochloride],41.2%
17,CN1C(=O)CCS(=O)(=O)C1c1ccc(Cl)cc1 (configuration not stated) [Chlormezanone],43%

# Copied from the list.
# In growth inhibition, `C[N+](C)(C)CC#CCOC(=O)Nc1cccc(Cl)c1` has the entry 45.8%
# In growth inhibition, `CC(C)N(CCC(C(N)=O)(c1ccccc1)c1ccccn1)C(C)C` (configuration not stated) [Disopyramide] has the entry 11%

# Remaining list, next part:

row,SMILES,growth inhibition
1,NC(=O)COc1c(F)cc(SCCNS(=O)(=O)c2ccccc2)cc1F,35.5%
2,COc1cc2c(c(OC)c1OC)-c1ccc(OC)c(=O)cc1[C@@H](NC(C)=O)CC2 [Colchicine],40.6%
3,COc1ccc2[nH]cc(CCN)c2c1 [O-Methylserotonin hydrochloride],46%
4,CN1C[C@H](CNC(=O)OCc2ccccc2)C[C@@H]2c3cccc4c3c(cn4C)C[C@H]21 [Metergoline],0.477%
5,CNCCc1c[nH]c2ccc(O)cc12 [N-omega-Methyl-5-hydroxytryptamine oxalate salt],50.6%
6,COc1ccc2c(c1)[C@]13CCCC[C@@H]1[C@H](C2)N(C)CC3 [Dextromethorphan hydrobromide monohydrate],45%
7,C#C[C@]1(O)CC[C@H]2[C@@H]3CCC4=Cc5nc6nc7ccccc7n6cc5C[C@]4(C)[C@H]3CC[C@@]21C,31%
8,NC(CCP(=O)(O)O)C(=O)O (racemic) [(±)-2-Amino-4-phosphonobutyric acid],40.9%
9,O=S1(=O)N(CCN2CC=C(c3c[nH]c4cc(F)ccc34)CC2)c2cccc3c2N1CCC3,-3.34%
10,"COc1ccc2[nH]c3c(c2c1)CCNC3 [6-Methoxy-1,2,3,4-tetrahydro-9H-pyrido[3,4b] indole]",10.9%
11,"O=[N+]([O-])c1cc(O)c(O)c([N+](=O)[O-])c1 [3,5-Dinitrocatechol]",26.8%
12,CN[C@@H]1C[C@@H](c2ccc(Cl)c(Cl)c2)c2ccccc21 [Indatraline hydrochloride],35.7%
13,CC(C)=CCOc1c2occc2cc2ccc(=O)oc12 [Imperatorin],48.2%
14,Clc1ccc(N2CC3CCC(C2)N3)nn1,39.5%
15,C=CCc1ccccc1OCC(O)CNC1(C)CCC(C(C)(C)NC(=O)CBr)CC1 (configuration not stated) [Bromoacetyl alprenolol menthane],63.1%
16,COc1cc([C@@H]2c3cc4c(cc3[C@H](O)[C@H]3COC(=O)[C@H]23)OCO4)cc(OC)c1OC [Podophyllotoxin],39.7%
